What all share (assay): affinity purification with mass spectrometry; TAP purification from S. pombe soluble extract (20 mM HEPES pH 8.0, 150 mM NaCl, 0.1% Tween 20): IgG beads, TEV cut, calmodulin-binding beads, EGTA elution; eluate digested with trypsin and peptides identified by MS
Experiment [1] concerns the target T1, C-terminally TAP-tagged Swm1 (S. pombe) (UniProt Q9Y802).
T1 sequence: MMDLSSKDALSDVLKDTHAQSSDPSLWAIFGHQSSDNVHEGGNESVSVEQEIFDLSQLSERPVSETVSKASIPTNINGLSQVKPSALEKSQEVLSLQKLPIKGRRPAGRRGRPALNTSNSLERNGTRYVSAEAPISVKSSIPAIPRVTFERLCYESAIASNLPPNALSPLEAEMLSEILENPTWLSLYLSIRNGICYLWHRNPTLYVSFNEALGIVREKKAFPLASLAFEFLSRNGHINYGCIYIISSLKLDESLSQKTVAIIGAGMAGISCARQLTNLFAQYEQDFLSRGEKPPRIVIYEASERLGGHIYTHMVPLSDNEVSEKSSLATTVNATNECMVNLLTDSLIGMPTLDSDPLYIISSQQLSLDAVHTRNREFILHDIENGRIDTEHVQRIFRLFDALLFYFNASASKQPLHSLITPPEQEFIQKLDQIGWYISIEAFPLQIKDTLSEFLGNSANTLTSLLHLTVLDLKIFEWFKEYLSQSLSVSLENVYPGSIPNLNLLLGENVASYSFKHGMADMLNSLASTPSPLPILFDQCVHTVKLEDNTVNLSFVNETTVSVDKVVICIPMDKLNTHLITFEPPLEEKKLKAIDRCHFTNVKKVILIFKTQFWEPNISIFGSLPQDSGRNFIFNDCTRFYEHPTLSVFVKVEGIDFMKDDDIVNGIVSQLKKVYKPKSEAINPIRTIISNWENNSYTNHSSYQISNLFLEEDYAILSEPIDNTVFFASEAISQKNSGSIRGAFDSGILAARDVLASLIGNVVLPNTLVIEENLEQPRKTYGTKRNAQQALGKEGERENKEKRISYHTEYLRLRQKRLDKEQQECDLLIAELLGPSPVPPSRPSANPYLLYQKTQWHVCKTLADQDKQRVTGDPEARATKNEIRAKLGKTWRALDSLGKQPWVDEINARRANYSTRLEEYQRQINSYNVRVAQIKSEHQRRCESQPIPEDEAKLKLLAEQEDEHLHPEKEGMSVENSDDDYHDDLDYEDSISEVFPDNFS

Experiment [2] has as its target T2, C-terminally TAP-tagged Swm2 (S. pombe) (UniProt Q10135).
T2 sequence: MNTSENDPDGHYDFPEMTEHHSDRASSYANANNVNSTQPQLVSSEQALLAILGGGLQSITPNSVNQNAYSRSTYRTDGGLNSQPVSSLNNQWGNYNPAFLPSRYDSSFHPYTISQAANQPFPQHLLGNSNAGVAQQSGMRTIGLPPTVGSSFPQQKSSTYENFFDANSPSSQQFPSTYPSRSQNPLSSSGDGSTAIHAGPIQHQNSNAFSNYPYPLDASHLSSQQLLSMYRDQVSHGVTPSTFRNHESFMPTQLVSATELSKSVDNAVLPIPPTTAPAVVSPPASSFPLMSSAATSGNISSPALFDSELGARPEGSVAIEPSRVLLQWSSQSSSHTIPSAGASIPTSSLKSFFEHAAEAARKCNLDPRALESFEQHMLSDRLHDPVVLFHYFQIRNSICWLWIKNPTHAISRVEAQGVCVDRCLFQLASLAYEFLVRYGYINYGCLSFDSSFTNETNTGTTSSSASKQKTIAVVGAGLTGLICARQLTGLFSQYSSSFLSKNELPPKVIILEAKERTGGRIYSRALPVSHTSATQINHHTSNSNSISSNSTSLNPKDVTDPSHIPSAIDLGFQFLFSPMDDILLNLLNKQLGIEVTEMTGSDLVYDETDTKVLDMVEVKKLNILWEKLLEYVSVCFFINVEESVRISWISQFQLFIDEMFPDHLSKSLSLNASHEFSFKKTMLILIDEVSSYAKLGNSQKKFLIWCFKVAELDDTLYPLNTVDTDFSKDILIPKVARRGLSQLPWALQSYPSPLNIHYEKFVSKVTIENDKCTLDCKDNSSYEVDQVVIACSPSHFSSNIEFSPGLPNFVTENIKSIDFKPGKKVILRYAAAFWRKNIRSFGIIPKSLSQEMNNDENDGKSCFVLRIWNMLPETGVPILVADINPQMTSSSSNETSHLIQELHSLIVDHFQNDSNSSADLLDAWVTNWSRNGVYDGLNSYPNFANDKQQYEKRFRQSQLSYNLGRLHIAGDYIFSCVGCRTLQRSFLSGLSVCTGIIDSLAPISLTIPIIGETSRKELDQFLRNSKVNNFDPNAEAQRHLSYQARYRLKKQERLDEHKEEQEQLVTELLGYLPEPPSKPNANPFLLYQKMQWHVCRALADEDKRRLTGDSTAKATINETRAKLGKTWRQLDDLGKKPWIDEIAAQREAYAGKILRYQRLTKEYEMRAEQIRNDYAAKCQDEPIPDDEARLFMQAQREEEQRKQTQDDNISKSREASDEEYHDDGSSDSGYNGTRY

In experiment [3] the target is T3, C-terminally TAP-tagged Swm1 (S. pombe), Q9Y802.
T3 chain: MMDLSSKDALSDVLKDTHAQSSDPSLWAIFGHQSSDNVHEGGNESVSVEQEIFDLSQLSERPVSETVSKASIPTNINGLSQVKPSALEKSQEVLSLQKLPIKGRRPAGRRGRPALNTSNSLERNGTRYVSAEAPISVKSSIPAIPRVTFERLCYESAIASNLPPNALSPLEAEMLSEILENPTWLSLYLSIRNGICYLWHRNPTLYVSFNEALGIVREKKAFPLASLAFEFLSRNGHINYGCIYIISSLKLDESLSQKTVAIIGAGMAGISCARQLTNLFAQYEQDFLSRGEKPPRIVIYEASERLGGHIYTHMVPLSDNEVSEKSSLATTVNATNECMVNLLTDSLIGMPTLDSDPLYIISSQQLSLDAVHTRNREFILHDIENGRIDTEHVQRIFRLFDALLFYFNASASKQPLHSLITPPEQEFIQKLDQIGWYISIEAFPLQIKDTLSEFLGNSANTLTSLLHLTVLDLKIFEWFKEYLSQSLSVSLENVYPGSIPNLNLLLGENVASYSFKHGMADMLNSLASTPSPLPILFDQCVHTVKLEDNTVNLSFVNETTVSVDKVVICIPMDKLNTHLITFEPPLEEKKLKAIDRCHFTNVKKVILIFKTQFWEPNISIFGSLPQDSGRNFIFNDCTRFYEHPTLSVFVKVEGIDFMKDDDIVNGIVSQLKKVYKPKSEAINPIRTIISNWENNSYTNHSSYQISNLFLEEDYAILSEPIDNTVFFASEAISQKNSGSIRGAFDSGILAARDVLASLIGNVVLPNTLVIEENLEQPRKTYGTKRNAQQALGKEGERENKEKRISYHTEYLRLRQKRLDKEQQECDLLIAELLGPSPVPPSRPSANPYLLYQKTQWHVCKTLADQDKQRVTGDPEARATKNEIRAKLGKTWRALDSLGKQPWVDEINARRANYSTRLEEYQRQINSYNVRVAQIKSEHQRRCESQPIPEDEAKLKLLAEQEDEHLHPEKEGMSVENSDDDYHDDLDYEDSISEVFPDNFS
The settings on record: remark: other sources report otherwise.

Results are given in words; binding and its absence hold for the method and conditions named. Binding seen in cells or lysates may run through a third protein. A yes stands for co-enrichment or nearness to the bait. Other partners may have been found. For some assays here: A no says only that the protein was not detected with the bait. Where a sequence is shown, tags or fusion partners need not be part of it.

B1: Swp2 (Swm associated PHD2) (protein, UniProt Q09908 1-538)
chain: MPNSSYYDDDGGSFEAASYPFQFDGSRRFPNDLHPTMFEGEESNQNGGSVLIDQAFQDIQNPNVNSNMHLENQFQHFHEPNKESGAFGSYKNDDVAKEIESSKNQETDAKSEQAPFTEDASSSNYAHHRSADSQTKSALPPNVPASSSPLPPMSIAMNIARKRSWPASLAIERDNTADALFSTEDGREEQFNLEGVKTKSGRKVHRPNHFDPLVKLPTRRRGPGRRPVVALAMKCSVCQRLQSPPKNRIVFCDGCNTPFHQLCHEPYISDELLDSPNGEWFCDDCIRRKKQAPLVTGTTARELNLSSEEKKSYLLSLPISQLVDILLFCEQLHPDIPFYSPKTSTIVQELQSKRSAFTATMNEPVTGDQYLSLNNGTESQSKTTKHSTSLPSTEPVEVDKQYMESEKIPTIDEYLQEYSNEDEIVLQVLESFPAAVSFSTITNTIQAKYSNRKIKNSNITRSLNRLVRKNRVLRDARGSSYELNRTFDADRPSVRPDISITGPIPIDWMLYTPHTEDLTENFCTYYMFDETPIVLSSI
Take B1: the binding entry is listed as “binds” in experiment [1] and “no binding” in experiment [2].

B2: Swp1 (Swm associated PHD1) (protein, UniProt P87233 1-461)
chain: MSQKNFFDEGKSYGVNDYAGFHFENGADSSLPQVSAQGVVRETDSSNFDASPVASGSGISDVGPFGADFHQLQQHVQTPYGGMTMPASSSSGATSVPPEQDPSLSVSFNRLPKSASTKTKNGRIRSSRREDDNRIPFYDLDVAEGAEDDLQEDFHVEGMKTKSGRKIQRPVAYNPNATALKRKSRKVDMVTLCSVCQRGHSPLSNRIVFCDGCNSPYHQLCHHPPIDDATVQDVDAEWFCMKCQYRRAKQPLETGMTAQDLGLSESDKKMYLSSLPTPHLADLILFCEKSYPSLPIYNPRTRELLGEIRHQLLVSSERQQISLQERLHAKQDEAPSDEPAPVPYTASYVANSGTLYDYPTLIRLAIRNTLSPSKDEIFNWLAQNVPLLPTFHDSASEAIRWMVNKGQLVRSGSIYQIATVEEYPHLQPSLLPTFQRNRKVPKLVPVSFPTDDPQNLCATVL
On to B2, for which the binding result in experiment [1] and in experiment [2] was “binds” in each case.

B3: Swm2, Q10135 1-1235 (protein)
chain: MNTSENDPDGHYDFPEMTEHHSDRASSYANANNVNSTQPQLVSSEQALLAILGGGLQSITPNSVNQNAYSRSTYRTDGGLNSQPVSSLNNQWGNYNPAFLPSRYDSSFHPYTISQAANQPFPQHLLGNSNAGVAQQSGMRTIGLPPTVGSSFPQQKSSTYENFFDANSPSSQQFPSTYPSRSQNPLSSSGDGSTAIHAGPIQHQNSNAFSNYPYPLDASHLSSQQLLSMYRDQVSHGVTPSTFRNHESFMPTQLVSATELSKSVDNAVLPIPPTTAPAVVSPPASSFPLMSSAATSGNISSPALFDSELGARPEGSVAIEPSRVLLQWSSQSSSHTIPSAGASIPTSSLKSFFEHAAEAARKCNLDPRALESFEQHMLSDRLHDPVVLFHYFQIRNSICWLWIKNPTHAISRVEAQGVCVDRCLFQLASLAYEFLVRYGYINYGCLSFDSSFTNETNTGTTSSSASKQKTIAVVGAGLTGLICARQLTGLFSQYSSSFLSKNELPPKVIILEAKERTGGRIYSRALPVSHTSATQINHHTSNSNSISSNSTSLNPKDVTDPSHIPSAIDLGFQFLFSPMDDILLNLLNKQLGIEVTEMTGSDLVYDETDTKVLDMVEVKKLNILWEKLLEYVSVCFFINVEESVRISWISQFQLFIDEMFPDHLSKSLSLNASHEFSFKKTMLILIDEVSSYAKLGNSQKKFLIWCFKVAELDDTLYPLNTVDTDFSKDILIPKVARRGLSQLPWALQSYPSPLNIHYEKFVSKVTIENDKCTLDCKDNSSYEVDQVVIACSPSHFSSNIEFSPGLPNFVTENIKSIDFKPGKKVILRYAAAFWRKNIRSFGIIPKSLSQEMNNDENDGKSCFVLRIWNMLPETGVPILVADINPQMTSSSSNETSHLIQELHSLIVDHFQNDSNSSADLLDAWVTNWSRNGVYDGLNSYPNFANDKQQYEKRFRQSQLSYNLGRLHIAGDYIFSCVGCRTLQRSFLSGLSVCTGIIDSLAPISLTIPIIGETSRKELDQFLRNSKVNNFDPNAEAQRHLSYQARYRLKKQERLDEHKEEQEQLVTELLGYLPEPPSKPNANPFLLYQKMQWHVCRALADEDKRRLTGDSTAKATINETRAKLGKTWRQLDDLGKKPWIDEIAAQREAYAGKILRYQRLTKEYEMRAEQIRNDYAAKCQDEPIPDDEARLFMQAQREEEQRKQTQDDNISKSREASDEEYHDDGSSDSGYNGTRY
For B3, in experiment [3], the binding result is on record as “binds”.

The record behind these values is article PMC1849891.
